Experimental data published in doi:10.1101/2021.05.26.443198.
Results are given in words; binding and its absence hold for the method and conditions named. In cells and extracts the contact can be indirect. Some results given as binding are weak or reduced against the parent protein; the word gives no strength.

By UniProt entry, the sequences of proteins in these tests, tags left out.
UniProt P40763: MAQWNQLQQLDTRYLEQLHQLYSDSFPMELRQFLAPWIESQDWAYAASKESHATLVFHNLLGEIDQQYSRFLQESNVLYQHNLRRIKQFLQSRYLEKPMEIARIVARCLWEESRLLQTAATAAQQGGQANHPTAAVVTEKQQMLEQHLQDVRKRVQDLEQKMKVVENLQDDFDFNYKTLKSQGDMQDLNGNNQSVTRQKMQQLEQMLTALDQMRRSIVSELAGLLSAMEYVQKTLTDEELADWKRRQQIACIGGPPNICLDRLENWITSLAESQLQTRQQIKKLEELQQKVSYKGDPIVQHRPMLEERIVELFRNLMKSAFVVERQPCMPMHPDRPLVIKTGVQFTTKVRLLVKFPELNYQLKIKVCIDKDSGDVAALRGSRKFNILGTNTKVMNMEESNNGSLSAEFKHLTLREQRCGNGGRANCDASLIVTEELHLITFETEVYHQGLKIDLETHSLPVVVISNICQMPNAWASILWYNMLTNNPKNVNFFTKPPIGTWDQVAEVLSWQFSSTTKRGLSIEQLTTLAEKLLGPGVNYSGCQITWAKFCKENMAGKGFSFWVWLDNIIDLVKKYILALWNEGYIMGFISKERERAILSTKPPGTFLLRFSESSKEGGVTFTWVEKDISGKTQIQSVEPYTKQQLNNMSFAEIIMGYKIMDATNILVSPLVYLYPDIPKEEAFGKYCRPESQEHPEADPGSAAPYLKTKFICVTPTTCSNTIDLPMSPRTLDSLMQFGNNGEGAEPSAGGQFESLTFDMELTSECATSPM

Target: T1, PIAS3 (human (in human breast cancer cells)) (UniProt Q9Y6X2)
T1 sequence: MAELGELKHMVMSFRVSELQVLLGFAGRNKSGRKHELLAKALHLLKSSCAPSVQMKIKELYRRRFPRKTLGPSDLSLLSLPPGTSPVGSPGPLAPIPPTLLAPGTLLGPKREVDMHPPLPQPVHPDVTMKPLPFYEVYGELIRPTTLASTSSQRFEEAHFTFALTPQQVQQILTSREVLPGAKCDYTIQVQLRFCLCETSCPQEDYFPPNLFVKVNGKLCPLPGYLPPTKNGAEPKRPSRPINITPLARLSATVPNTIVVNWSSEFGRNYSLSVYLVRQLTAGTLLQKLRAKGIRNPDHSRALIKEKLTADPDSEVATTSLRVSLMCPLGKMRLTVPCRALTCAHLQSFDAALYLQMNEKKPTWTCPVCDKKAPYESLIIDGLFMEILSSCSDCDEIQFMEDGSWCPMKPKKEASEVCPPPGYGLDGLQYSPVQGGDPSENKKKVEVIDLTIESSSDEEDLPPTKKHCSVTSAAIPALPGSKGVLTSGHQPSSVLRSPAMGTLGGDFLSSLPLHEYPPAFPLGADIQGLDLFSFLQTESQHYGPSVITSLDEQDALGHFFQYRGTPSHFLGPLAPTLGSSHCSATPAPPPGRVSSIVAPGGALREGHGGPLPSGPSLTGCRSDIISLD
Assay: proximity ligation

binding: binds
Substance: STAT3 (from UniProt P40763 1-770)
